Results are given in words; binding and its absence hold for the method and conditions named. Binding seen in cells or lysates may run through a third protein. A result given as binding can be weak or reduced; the word gives no strength.
Target: CaMITA-Myc (crucian carp (C. auratus))
Assay: co-IP; HEK 293T cells co-transfected (10 µg plasmids in all), 24 h; lysed in RIPA lysis buffer with protease inhibitors at 4°C; supernatant with anti-Flag or anti-Myc affinity gel overnight at 4°C; washed three times with lysis buffer; western blotting

Amino acid sequences for entries named in this document (tags omitted). A change or cut given only in a name is not applied to a line headed by its entry.
UniProt A0A6P6R941: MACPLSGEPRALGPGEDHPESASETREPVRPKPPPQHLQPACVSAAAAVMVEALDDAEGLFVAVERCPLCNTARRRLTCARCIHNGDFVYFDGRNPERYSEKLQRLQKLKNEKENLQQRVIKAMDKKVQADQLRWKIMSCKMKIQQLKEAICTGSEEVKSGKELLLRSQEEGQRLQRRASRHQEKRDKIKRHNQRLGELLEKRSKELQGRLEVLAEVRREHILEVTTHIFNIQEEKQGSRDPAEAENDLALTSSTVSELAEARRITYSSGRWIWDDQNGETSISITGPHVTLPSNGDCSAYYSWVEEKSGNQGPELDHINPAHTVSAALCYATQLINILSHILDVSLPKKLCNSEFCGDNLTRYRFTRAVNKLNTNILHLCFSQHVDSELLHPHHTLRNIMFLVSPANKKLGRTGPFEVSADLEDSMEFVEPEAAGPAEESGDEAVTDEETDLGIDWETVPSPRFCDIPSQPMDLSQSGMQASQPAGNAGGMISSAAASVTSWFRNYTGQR

binding: binds
Substance: CaATG14-HA (from UniProt A0A6P6R941)

Reference: publication PMC8662705
